From PubChem BioAssay AID1487 (National Center for Advancing Translational Sciences (NCATS), 2009)
The other results are listed elsewhere or left out. The main result of the screen is listed elsewhere. These columns were measured beside it and carry no call. The list favours compounds with an active or inconclusive main result. The note in brackets gives the kind of curve behind each potency; many fits are weak.

Experiment: qHTS Assay for Modulators of Lamin A Splicing
Settings: HeLa LMNA splicing GFP/RFP minigene ratio, 48 h
Method in brief: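 Read-out is the ratio of GFP to DsRed2 object intensity, acquired by 488 nm laser-scanning cytometry on HeLa lamin A-EGFP minigene reporter cells. Compound incubation 48 hrs at 37 °C in Opti-MEM with 2% FBS; DMSO 0.5% final.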

[1] = measured here: GFP splicing reporter channel
[2] = measured here: RFP viability control channel

| SMILES | AC50 [1] | AC50 [2] |
| --- | --- | --- |
| CCOC(=O)c1c(-c2ccccc2)csc1N1C(=O)Nc2ccccc2N1O | 0.0251 µM [rising, full curve] | 0.0224 µM [rising, full curve, poor fit] |
| COc1ccc(N2CCN(C(=O)CN(CCc3ccccc3)S(C)(=O)=O)CC2)cc1 |  | 31.6 µM [rising, single point] |
| CC1CCN(CCCCOc2ccccc2Br)CC1 |  | 35.5 µM [rising, single point] |
| Cn1nnnc1SCC1=C(C(=O)O)N2C(=O)[C@@H](NC(=O)[C@@H](O)c3ccccc3)[C@@H]2SC1 | 0.282 µM [falling, full curve, poor fit] | 0.000891 µM [falling, full curve, poor fit] |
| CCc1ccc(C(=O)CSc2nc3cc(S(=O)(=O)N4CCOCC4)ccc3n2CC)cc1 |  | 35.5 µM [rising, single point] |
| Oc1ccccc1/C=N/Nc1nccnc1Cl |  | 6.31 µM [rising, partial curve] |
| CC1N(O)C(c2ccc(Cl)cc2Cl)N(O)C1(C)C (configuration not stated) |  | 3.55 µM [falling, partial curve, poor fit] |
| COCCn1c(C)cc(C(=O)CSc2ccc3ccccc3n2)c1C |  | 12.6 µM [rising, partial curve] |
| Cc1nn(-c2ccccc2)c2nc(-c3cccs3)cc(C(=O)NN)c12 |  | 0.0224 µM [falling, full curve, poor fit] |
| CNC(=O)[C@H]1O[C@@H](n2cnc3c(NCc4cccc(I)c4)ncnc32)[C@H](O)[C@H]1O | 6.31 µM [rising, partial curve, poor fit] | 6.31 µM [rising, single point] |
| CCOC(=O)c1ccc(NS(=O)(=O)c2cc(-c3nnnn3C(C)C)ccc2OC)cc1 | 10 µM [rising, partial curve, poor fit] | 7.94 µM [rising, partial curve] |
| COC(=O)c1c(C#N)c(N)nc2c1CCCC2 | 6.31 µM [falling, single point] |  |
| CCCCS/C(N)=N/N=C/c1cc(C)ccc1O | 0.112 µM [rising, full curve, poor fit] |  |
| CCOC(=O)c1[nH]c2c(c1C)C(=O)CC(c1ccc(N(C)C)cc1)C2 (configuration not stated) |  | 14.1 µM [rising, partial curve] |
| COc1ccc(/C=C2\SC(=O)N(CCNC(=O)CCS(=O)(=O)c3ccc(C)cc3)C2=O)cc1 |  | 25.1 µM [rising, single point] |
| Cc1ccccc1NS(=O)(=O)c1ccc2[nH]cc(C(=O)NCCc3ccccc3)c(=O)c2c1 | 6.31 µM [rising, partial curve] |  |
| COC(=O)c1cnc(N2CCN(c3ccc(OC)cc3)CC2)c2ccccc12 | 0.178 µM [rising, full curve, poor fit] |  |
| CCN(CC)c1ccc(C(=O)N/N=C/c2ccccc2OC(F)F)cc1 |  | 35.5 µM [falling, single point] |
| Cc1nn(-c2ccccc2)c(C)c1C(=O)Nc1nnc(-c2ccco2)o1 |  | 10 µM [rising, partial curve, poor fit] |

| SMILES | AC50 [1] | AC50 [2] |
| --- | --- | --- |
| CCOC(=O)Nc1cccc(Nc2ccccc2)c1 |  | 20 µM [rising, partial curve, poor fit] |
| COc1ccc(-c2cc(=O)oc3cc(OCC(C)=O)ccc23)cc1 |  | 15.8 µM [rising, partial curve, poor fit] |
| O=C(Cc1ccccc1[N+](=O)[O-])NCc1ccc(Cl)cc1 |  | 10 µM [falling, single point] |
| Cc1nn(Cc2c(Cl)cccc2Cl)c(C)c1NC(=O)/C=C/c1cnn(C)c1C | 35.5 µM [falling, single point] |  |
| O=C1N=C(N2CCOCC2)SC1=C1CCCCC1 | 0.282 µM [rising, full curve, poor fit] | 3.55 µM [rising, partial curve, poor fit] |
| CC(C)C(Sc1nc(-c2ccccc2)cc(-c2ccccc2)c1C#N)C(=O)O (configuration not stated) | 35.5 µM [falling, single point] | 35.5 µM [falling, single point] |
| NC(=S)NNc1ccnc2cc(Cl)ccc12 | 15.8 µM [falling, single point] |  |
| Cc1cccc2sc(NC(=O)CCNS(=O)(=O)c3cccc4nonc34)nc12 |  | 20 µM [rising, single point] |
| CCOC(=O)c1sc2nccc(N(C)C)c2c1N=CNOCc1c(F)cccc1Cl | 17.8 µM [rising, single point] | 31.6 µM [rising, single point] |
| O=C(Nc1nc2ccccc2s1)C1CC(=O)N(c2ccc(F)cc2)C1 (configuration not stated) |  | 7.08 µM [rising, partial curve, poor fit] |
| CCCCCCOC(=O)c1ccccc1NC(=O)/C=C/C(=O)O | 0.0316 µM [falling, single point] | 0.0251 µM [falling, single point] |
| CC1CCN(C2(O)C(=O)Nc3ccc(Br)cc32)CC1 (configuration not stated) |  | 14.1 µM [rising, single point] |
| O=C(Nc1ccccc1C(F)(F)F)c1ncoc1-c1ccco1 | 7.94 µM [falling, partial curve] |  |
| O=C(Cc1ccc([N+](=O)[O-])cc1)Nc1nnc(C2CC2)s1 | 3.16 µM [rising, single point] |  |
| CCNc1nc(Oc2ccc(C#N)cc2)cc(C(F)(F)F)n1 |  | 2.24 µM [rising, single point] |
| CC(C)Cc1nnc(NC(=O)CSc2ncn[nH]2)s1 | 17.8 µM [rising, single point] | 17.8 µM [rising, partial curve, poor fit] |
| CC1CCCC(NC(=S)NC(=O)c2cncc(Br)c2)C1C (configuration not stated) | 35.5 µM [rising, single point] |  |
| Cc1cc(C=O)c2c(c1)C=CC1(Oc3ccccc3C(=O)N1C)O2 (configuration not stated) |  | 35.5 µM [rising, single point] |
| O=C(COc1ccc(Br)cc1Br)NC(=S)Nc1cccc(CO)c1 | 35.5 µM [rising, single point] |  |

| SMILES | AC50 [1] | AC50 [2] |
| --- | --- | --- |
| CCN(C(=O)CN1CCN(S(=O)(=O)c2cc(Cl)ccc2Cl)CC1)c1c(N)n(Cc2ccccc2)c(=O)[nH]c1=O |  | 0.00447 µM [falling, full curve, poor fit] |
| O=C(NCC1CCCO1)C(c1cccs1)N(Cc1ccccc1)C(=O)c1ccc(-c2ccccc2)[nH]1 (configuration not stated) |  | 14.1 µM [rising, single point] |
| CS(=O)(=O)Nc1cccc(-c2ccc3ncnc(N4CCNCC4)c3c2)c1 | 12.6 µM [falling, partial curve] | 11.2 µM [falling, single point] |
| CCN1C(=O)CC(N2CCN(c3ccc(Cl)cc3)CC2)C1=O (configuration not stated) | 25.1 µM [rising, single point] |  |
| CC(C(=O)Nc1cccc([N+](=O)[O-])c1)N1CCN(C/C=C/c2ccccc2)CC1 (configuration not stated) | 14.1 µM [falling, partial curve] |  |
| O=C(Nc1nc(-c2cccs2)c(-c2cccs2)s1)C1CCCC1 |  | 11.2 µM [rising, partial curve, poor fit] |
| CCOc1ccccc1NC(=O)C1CCN(S(=O)(=O)c2ccc(OC)c(OC)c2)CC1 | 0.0891 µM [rising, full curve, poor fit] |  |
| Cc1ccc(-c2nn(-c3cc(N4CCNCC4)ccc3[N+](=O)[O-])c(=O)c3ccccc23)cc1 |  | 25.1 µM [rising, single point] |
| FC(F)(F)c1cnc(C(c2ccccn2)c2ncn[nH]2)c(Cl)c1 (configuration not stated) | 35.5 µM [falling, single point] |  |
| O=C(Nc1cccc(Cl)c1)C1CCCN(S(=O)(=O)c2ccc(F)cc2)C1 (configuration not stated) | 15.8 µM [rising, single point] | 22.4 µM [rising, single point] |
| Cc1cc(C(=O)Nc2c[nH]c(=O)[nH]c2=O)ccc1[N+](=O)[O-] | 0.0891 µM [rising, full curve] | 0.126 µM [rising, full curve, poor fit] |
| Cc1cccc(C)c1NC(=O)CN1CCN(CCCC(c2ccc(F)cc2)c2ccc(F)cc2)CC1 | 0.282 µM [falling, full curve] | 0.355 µM [falling, full curve, poor fit] |
| CC(C)CNS(=O)(=O)c1ccc(CCC(=O)Nc2cc(Cl)ccc2Oc2ccccc2)cc1 |  | 31.6 µM [rising, single point] |
| COc1ccc(CNS(=O)(=O)c2cc3c(cc2Cl)N(C(C)=O)CCO3)cc1 | 5.01 µM [falling, partial curve, poor fit] |  |
| C=CCn1c(SCC(=O)N2CCc3ccccc3C2)nc2sc(CC)cc2c1=O | 35.5 µM [rising, single point] | 22.4 µM [rising, partial curve] |
| COc1cc(NC(=O)CN2CCN(S(=O)(=O)c3ccc(Br)cc3)CC2)cc(OC)c1 | 0.1 µM [rising, full curve, poor fit] |  |
| COc1ccc(CNC(=O)N2CCN(c3ccc(F)cc3)CC2)cc1Cl | 5.62 µM [rising, single point] | 5.62 µM [rising, single point] |
| O=C(COc1ccccc1C(=O)O)Nc1nc2ccc([N+](=O)[O-])cc2s1 |  | 31.6 µM [rising, single point] |
| CCCOC(=O)c1cccc(NC(=O)c2c(-c3ccccc3Cl)noc2C)c1 |  | 6.31 µM [rising, single point] |

3 compounds from above, ordered by formula weight, rising:

| SMILES | AC50 [1] | AC50 [2] |
| --- | --- | --- |
| CS(=O)(=O)Nc1cccc(-c2ccc3ncnc(N4CCNCC4)c3c2)c1 | 12.6 µM [falling, partial curve] | 11.2 µM [falling, single point] |
| CCOc1ccccc1NC(=O)C1CCN(S(=O)(=O)c2ccc(OC)c(OC)c2)CC1 | 0.0891 µM [rising, full curve, poor fit] |  |
| COc1cc(NC(=O)CN2CCN(S(=O)(=O)c3ccc(Br)cc3)CC2)cc(OC)c1 | 0.1 µM [rising, full curve, poor fit] |  |
